These are yes or no findings as the source states them, for the method shown.
Columns and labels:
[1] = target: Bacillus subtilis acetyltransferase AcuA (Bacillus subtilis) (UniProt P39065); experiment: SEC; analytical SEC of the single proteins, Superdex 200 10/300 GL, 50 mM Tris/HCl pH 8, 50 mM KCl, 2 mM β-mercaptoethanol; 100 µl of 50–100 µM injected; MW from a calibration curve; both purified
[2] = target: Bacillus subtilis acetyltransferase AcuA (Bacillus subtilis) (UniProt P39065); experiment: SEC; analytical SEC of the preformed equimolar AcsA•AcuA complex pretreated with a tenfold molar excess of acetyl-CoA (excess also varied), 30 min at room temperature; fractions checked by anti-AcK immunoblot and Ponceau S; both purified

B1: Bacillus subtilis acetyltransferase AcuA (enzyme, UniProt P39065 1-210, looked up)
chain: MEHHKTYHSANIKTATGSLLIEGPVSPEDLAGYEFHKDLTAFRPPREQHEALVDIAGLPEGRIIIARDGRTIVGYVTYLYPDPLERWSEGNMEDLIELGAIEVAPDYRGCAVGKTLLTVSMMDEQMENYIVMTTEYYWHWDLKGMKKDVWEYRKIMEKMMNAGGLVWFATDEPEISSHPANCLMARIGKNVSQESIEQFDRLRFYHRYMY
notes: GNAT-related lysine acetyltransferase AcuA, Bacillus subtilis, UniProt P39065; synthetic gene codon optimized for E. coli; also called AcuA wildtype; AcuA WT; source: E. coli BL21 (DE3), pET45b(+), purified (HisTrap FF, Ni2+)
In the case of B1, the binding [1] is reported as “no binding (tested: 100 µl of 50–100 µM injected)” and the binding [2] is reported as “no binding (tested: 100 µl of 50–100 µM injected)”.

From PMC11255334, “Acetyl-CoA synthetase activity is enzymatically regulated by lysine acetylation using acetyl-CoA or acetyl-phosphate as donor molecule” (Nature Communications, 2024)
